Test [1] deals with T1, StrepII-CsoSCA (Halothiobacillus neapolitanus) (UniProt O85042).
T1 sequence: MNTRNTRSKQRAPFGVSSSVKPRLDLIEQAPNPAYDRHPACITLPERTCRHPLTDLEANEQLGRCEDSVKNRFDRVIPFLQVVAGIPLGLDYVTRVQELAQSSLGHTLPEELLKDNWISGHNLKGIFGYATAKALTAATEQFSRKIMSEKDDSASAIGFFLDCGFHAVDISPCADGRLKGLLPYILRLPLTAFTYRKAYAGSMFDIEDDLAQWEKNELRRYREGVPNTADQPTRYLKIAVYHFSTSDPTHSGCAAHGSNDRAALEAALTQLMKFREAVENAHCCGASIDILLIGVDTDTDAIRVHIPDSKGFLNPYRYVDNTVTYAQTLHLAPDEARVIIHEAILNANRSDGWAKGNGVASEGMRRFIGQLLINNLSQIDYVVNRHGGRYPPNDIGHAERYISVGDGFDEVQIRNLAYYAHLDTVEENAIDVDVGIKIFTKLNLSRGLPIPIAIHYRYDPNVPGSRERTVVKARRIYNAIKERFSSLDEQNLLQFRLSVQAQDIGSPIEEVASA
Put plainly: pull-down; in vivo pull-down: StrepII-CsoSCA coexpressed with minishells and Rubisco, lysate on StrepTactin XT 4Flow high capacity, Buffer W, eluted with Buffer BXT, immunoblot.

Protein sequences, listed by entry. Tags and fused reporters are not part of them.
UniProt O85040: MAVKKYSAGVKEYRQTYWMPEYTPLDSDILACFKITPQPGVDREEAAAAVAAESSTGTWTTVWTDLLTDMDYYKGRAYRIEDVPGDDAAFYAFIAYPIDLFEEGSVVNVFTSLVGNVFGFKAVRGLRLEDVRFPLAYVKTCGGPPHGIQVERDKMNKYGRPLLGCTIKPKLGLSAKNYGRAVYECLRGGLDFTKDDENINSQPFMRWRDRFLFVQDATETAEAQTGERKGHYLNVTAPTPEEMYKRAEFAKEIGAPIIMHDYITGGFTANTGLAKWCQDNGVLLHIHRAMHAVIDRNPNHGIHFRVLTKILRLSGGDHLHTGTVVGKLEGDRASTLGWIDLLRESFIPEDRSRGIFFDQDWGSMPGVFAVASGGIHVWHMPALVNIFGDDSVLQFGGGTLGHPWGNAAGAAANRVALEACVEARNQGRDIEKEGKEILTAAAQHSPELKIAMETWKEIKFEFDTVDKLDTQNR

Test [2] concerns the target T2, CsoSCA-His6 (CsoSCA fused to a C-terminal His6 tag) (Halothiobacillus neapolitanus) (UniProt O85042).
T2 sequence: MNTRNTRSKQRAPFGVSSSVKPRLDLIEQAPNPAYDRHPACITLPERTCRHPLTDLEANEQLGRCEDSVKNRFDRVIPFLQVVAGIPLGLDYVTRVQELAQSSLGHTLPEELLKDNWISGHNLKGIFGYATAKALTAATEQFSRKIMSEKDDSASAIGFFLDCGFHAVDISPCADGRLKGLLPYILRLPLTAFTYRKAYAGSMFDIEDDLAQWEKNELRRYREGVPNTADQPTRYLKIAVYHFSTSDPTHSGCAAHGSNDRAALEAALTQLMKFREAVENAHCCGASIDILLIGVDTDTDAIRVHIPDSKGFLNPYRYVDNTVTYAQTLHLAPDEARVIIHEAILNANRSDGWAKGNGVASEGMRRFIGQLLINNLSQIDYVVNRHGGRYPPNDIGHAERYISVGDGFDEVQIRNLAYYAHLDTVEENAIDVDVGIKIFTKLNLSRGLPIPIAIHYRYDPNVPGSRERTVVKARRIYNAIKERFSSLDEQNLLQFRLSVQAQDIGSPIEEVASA
The test can be described thus: co-purification with assembled minishells (sucrose cushion and gradient, anion exchange), immunoblot; minishells (lacking CsoS2) coexpressed with CsoSCA and Rubisco; CbbL in purified minishells by immunoblot, against minishells lacking CsoSCA.

Test [3] deals with T3, CsoS4A-CsoS1A minishell (Construct 4, S4A-S1A) (Halothiobacillus neapolitanus) (UniProt O85043+P45689).
T3 sequence 1: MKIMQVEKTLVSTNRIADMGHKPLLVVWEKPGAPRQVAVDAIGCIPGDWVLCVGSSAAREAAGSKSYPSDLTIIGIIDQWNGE
T3 sequence 2: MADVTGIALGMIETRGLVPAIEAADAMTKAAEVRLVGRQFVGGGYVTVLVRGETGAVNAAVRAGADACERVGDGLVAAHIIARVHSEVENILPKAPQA
Put plainly: co-purification with assembled minishells (sucrose cushion and gradient, anion exchange), immunoblot; CsoSCA constructs coexpressed with minishell constructs in E. coli TOP10; minishells purified; samples normalised to CsoS1A; anti-His blot.

In test [4] the target is T4, CsoS1A (the major shell hexamer) (Halothiobacillus neapolitanus) (UniProt P45689).
T4 sequence: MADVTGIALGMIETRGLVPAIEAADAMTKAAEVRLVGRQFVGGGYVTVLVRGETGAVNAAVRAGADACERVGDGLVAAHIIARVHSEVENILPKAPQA
Put plainly: cryo-EM structure; single-particle cryo-EM of purified T = 4 minishell/CsoSCA^ΔC (2.36 Å symmetry relaxed) and minishell/CsoSCA-C (3.05 Å); internal density seen at low contour, disordered.

For test [5], the target named is T5, StrepII-CsoSCA-His6 (Halothiobacillus neapolitanus), O85042.
T5 chain: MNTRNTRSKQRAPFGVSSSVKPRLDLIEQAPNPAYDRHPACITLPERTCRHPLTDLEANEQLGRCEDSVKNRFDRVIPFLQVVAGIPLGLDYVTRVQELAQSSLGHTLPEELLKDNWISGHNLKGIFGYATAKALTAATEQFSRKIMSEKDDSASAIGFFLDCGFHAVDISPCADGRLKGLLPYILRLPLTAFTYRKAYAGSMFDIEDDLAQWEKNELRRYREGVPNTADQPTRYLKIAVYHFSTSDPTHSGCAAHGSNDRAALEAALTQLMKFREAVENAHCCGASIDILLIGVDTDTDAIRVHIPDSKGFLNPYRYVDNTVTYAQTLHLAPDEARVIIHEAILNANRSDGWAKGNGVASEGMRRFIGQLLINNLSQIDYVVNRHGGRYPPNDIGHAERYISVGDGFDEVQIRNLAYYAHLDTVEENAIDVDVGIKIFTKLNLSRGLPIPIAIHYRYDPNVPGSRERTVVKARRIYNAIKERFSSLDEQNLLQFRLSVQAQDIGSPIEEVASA
Put plainly: pull-down; in vivo pull-down: StrepII-CsoSCA-His6 coexpressed with minishells, lysate on StrepTactinXT 4Flow, Buffer W, eluted with Buffer BXT, immunoblot. Particulars: remark: other sources report otherwise.

Test [6] addresses T6, StrepII-CsoSCA (Halothiobacillus neapolitanus), O85042.
T6 chain: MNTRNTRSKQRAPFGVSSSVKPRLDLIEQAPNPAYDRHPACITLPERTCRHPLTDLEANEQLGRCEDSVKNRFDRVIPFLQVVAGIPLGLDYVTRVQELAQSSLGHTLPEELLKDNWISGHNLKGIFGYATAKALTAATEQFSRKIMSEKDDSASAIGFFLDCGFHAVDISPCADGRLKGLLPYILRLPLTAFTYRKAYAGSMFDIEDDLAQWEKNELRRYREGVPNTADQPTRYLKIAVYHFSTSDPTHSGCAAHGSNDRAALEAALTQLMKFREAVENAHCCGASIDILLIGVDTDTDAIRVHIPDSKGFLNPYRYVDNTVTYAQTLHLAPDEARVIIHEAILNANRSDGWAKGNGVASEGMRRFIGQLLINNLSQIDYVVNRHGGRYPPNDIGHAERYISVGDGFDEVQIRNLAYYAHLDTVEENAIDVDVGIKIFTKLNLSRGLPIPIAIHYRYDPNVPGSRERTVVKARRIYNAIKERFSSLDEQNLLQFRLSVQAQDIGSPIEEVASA
Put plainly: pull-down; in vivo pull-down: StrepII-CsoSCA coexpressed with minishells and Rubisco, lysate on StrepTactin XT 4Flow high capacity, Buffer W, eluted with Buffer BXT, immunoblot. Particulars: remark: other sources report otherwise.

This is an account of results in PMC12646314, “Structure and encapsulation of carbonic anhydrase within the α-carboxysome” (Proceedings of the National Academy of Sciences of the …, 2025).

No constants are given. Whether binding was seen depends on the method and setting. For some of these results: Binding seen in cells or lysates may run through a third protein. Some entries that bind do so weakly or less than the wild type. For some of these results: Sequences can lack the tags named with a protein.

In the case of “CbbL (the large subunit of Rubisco) (from UniProt O85040 1-473)”, the binding entry in test [1] and in test [2] was “binds” each time.

B1: CsoSCA-His6 (CsoSCA fused to a C-terminal His6 tag) (enzyme, Halothiobacillus neapolitanus, UniProt O85042 1-514, looked up)
chain: MNTRNTRSKQRAPFGVSSSVKPRLDLIEQAPNPAYDRHPACITLPERTCRHPLTDLEANEQLGRCEDSVKNRFDRVIPFLQVVAGIPLGLDYVTRVQELAQSSLGHTLPEELLKDNWISGHNLKGIFGYATAKALTAATEQFSRKIMSEKDDSASAIGFFLDCGFHAVDISPCADGRLKGLLPYILRLPLTAFTYRKAYAGSMFDIEDDLAQWEKNELRRYREGVPNTADQPTRYLKIAVYHFSTSDPTHSGCAAHGSNDRAALEAALTQLMKFREAVENAHCCGASIDILLIGVDTDTDAIRVHIPDSKGFLNPYRYVDNTVTYAQTLHLAPDEARVIIHEAILNANRSDGWAKGNGVASEGMRRFIGQLLINNLSQIDYVVNRHGGRYPPNDIGHAERYISVGDGFDEVQIRNLAYYAHLDTVEENAIDVDVGIKIFTKLNLSRGLPIPIAIHYRYDPNVPGSRERTVVKARRIYNAIKERFSSLDEQNLLQFRLSVQAQDIGSPIEEVASA
notes: CsoSCA of H. neapolitanus, UniProt O85042; called full-length CsoSCA in the discussion; also called full-length CsoSCA; source: E. coli TOP10, coexpressed with minishell constructs, co-purified with minishells; not shown: His6, C-terminal, kept
As to B1, the binding result in test [3] is “binds”.

B2: CbbS-His6 (the small subunit of Rubisco with a C-terminal His6 tag) (protein, UniProt P45686 1-110)
chain: MAEMQDYKQSLKYETFSYLPPMNAERIRAQIKYAIAQGWSPGIEHVEVKNSMNQYWYMWKLPFFGEQNVDNVLAEIEACRSAYPTHQVKLVAYDNYAQSLGLAFVVYRGN
For B2, the binding entry in test [1] is on record as “binds”.

B3: CsoS4A (shell pentamer) (natural protein, Halothiobacillus neapolitanus)
chain: MKIMQVEKTLVSTNRIADMGHKPLLVVWEKPGAPRQVAVDAIGCIPGDWVLCVGSSAAREAAGSKSYPSDLTIIGIIDQWNGE
notes: CsoS4A, alpha-carboxysome shell vertex protein of H. neapolitanus; also called CsoS4A pentamer; source: E. coli TOP10, expressed from the minishell construct, in purified minishells
Consider B3, for which, in test [4], the binding entry is listed as “binds”.

B4: CsoS1A (the major shell hexamer) (natural protein, Halothiobacillus neapolitanus)
chain: MADVTGIALGMIETRGLVPAIEAADAMTKAAEVRLVGRQFVGGGYVTVLVRGETGAVNAAVRAGADACERVGDGLVAAHIIARVHSEVENILPKAPQA
notes: CsoS1A, major alpha-carboxysome shell protein of H. neapolitanus; also called CsoS1A shell hexamer; source: E. coli TOP10, expressed from the minishell construct; in lysate (pull-down) and in purified minishells (cryo-EM)
As to B4, the binding result in test [5] and in test [6] was “binds” each time.
